The values below come from PubChem BioAssay AID2685 (National Center for Advancing Translational Sciences (NCATS), 2010).

Structures are written as SMILES. The list shows a part of the results. Shown are side measurements of this screen, not its main read-out; they come without a call. Compounds called inactive in the main read-out are mostly missing here. Potencies come from curve fits of mixed quality, noted in brackets.

A short description of this assay: qHTS Assay for Lipid Storage Modulators in Drosophila S3 Cells.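 For cell number change: cells counted by Cell Tracker Red CMTPX staining in the red channel.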 The conditions noted are these: BODIPY lipid droplet fluorescence, 18-24 h; for cell number change: measured here: cell count max response, cells fed with added oleic acid. Put shortly:
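Laser-scanning cytometry quantifies lipid droplet accumulation (500–530 nm total intensity; droplet/cell object ratio) in oleic acid-fed (400 uM added) Drosophila S3 cells treated with a concentration series. 20 uM Triacsin C defined 100% inhibition.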
Background: In qHTS, concentration-response curves come from the screen itself.

[1] abbreviates: measured here: lipid fluorescence (Fed channel) AC50, cells fed with added oleic acid.
The mark [2] stands for this setting: measured here: cell number channel AC50, cells fed with added oleic acid.

For orientation: AC50 means the concentration giving half of the maximal activity seen.

Regarding `CCOc1ccc(NC(=O)COC(=O)c2cccnc2)cc1`, the cell number change was found to be 6.59%. The AC50 under setting [1] was 29.1 µM [falling, single point]. As to `O=C1CC(c2ccc(S(=O)(=O)Nc3cc(C(F)(F)F)cc(C(F)(F)F)c3)cc2)CN1` (stereo not given), the cell number change was found to be 32.6%. The AC50 under setting [2] was 18.4 µM [rising, partial curve, poor fit]. Take `COc1cc(/C=C(\C#N)C(=O)Nc2cccc(C(=O)O)c2)ccc1OCc1ccc(Cl)cc1`: the cell number change was -4.76%. The AC50 under setting [2] is 0.326 µM [rising, partial curve, poor fit]. Take `N#CC1=C(N)OC2=C(C(=O)CCC2)C12CCN(C(=O)OCc1ccccc1)CC2`: the cell number change was -10.6%. In addition, the concentration at half-maximal activity (AC50) under setting [1] is 1.64 µM [rising, partial curve].

For the compound `Cc1ccc2c(c1)nnn2C1CCN(CC(=O)Nc2ccccc2N2CCOCC2)CC1`, the cell number change was -21.9%. Further, the AC50 under setting [1] is 16.4 µM [falling, single point]. With `CC(C(=O)Nc1ccc(OCc2ccccc2)cc1)N1CCCC1` (stereo not given), the cell number change amounted to 1.13%. For the same compound, under setting [2], the AC50 was 0.00461 µM [falling, full curve, poor fit]. In addition, the AC50 under setting [1] was 0.00461 µM [falling, full curve, poor fit]. For the compound `O=C(OCC(=O)N1CCCCC1)c1c[nH]c2ccccc12`, the cell number change was -3.16%. `CCOCCCn1c(=S)[nH]c2cc(C(=O)N3CCC(C(N)=O)CC3)ccc2c1=O`: the cell number change is -43.3%. Moreover, the AC50 under setting [2] is 4.11 µM [falling, full curve, poor fit]. The AC50 under setting [1] was 2.91 µM [falling, partial curve, poor fit]. With `N#Cc1cnc(SCC(=O)NNC(=O)COc2cccc3ccccc23)nc1N`, the cell number change amounted to 23.6%. Under setting [1], the half-maximal activity concentration (AC50) was 0.259 µM [falling, partial curve, poor fit]. Regarding `CCc1ccc(NC(=O)CSc2nnc(CNC(=O)c3ccco3)o2)cc1`, the cell number change was 11.2%. For `O=C(Nc1nnc(C2CC2)s1)C1COc2ccccc2O1` (stereo not given), the cell number change worked out at 23%. Besides, the concentration at half-maximal activity (AC50) under setting [1] was 0.00461 µM [rising, full curve, poor fit]. With `Cc1cccc(-n2nnnc2SCC(=O)c2cc(C)n(Cc3ccco3)c2C)c1`, the cell number change was -32%. On to `CCn1c(-c2ccc(F)cc2)n[nH]c1=S`, for which the cell number change was 27.6%. The AC50 under setting [1] was 29.1 µM [rising, single point]. On to `O=C(CN1C(=O)NC2(CCCC2)C1=O)Nc1ccc(Cl)cc1F`, for which the cell number change worked out at 3.95%. For the same compound, the half-maximal activity concentration (AC50) under setting [1] is 5.62 µM [rising, single point]. Consider `CCOC(=O)c1sc(NC(=O)CSc2nnnn2-c2ccccc2)nc1C`, for which the cell number change was found to be 2.91%. In addition, under setting [1], the AC50 is 1.16 µM [rising, full curve, poor fit]. On to `Nc1nnc(SCc2cn3cc(Cl)ccc3n2)s1`, for which the half-maximal activity concentration (AC50) under setting [2] was 6.51 µM [rising, partial curve, poor fit]. With `CCN(CC)C(=S)SCC(=O)Nc1ncc2c(n1)CCCC2=O`, the cell number change was 18.2%. Moreover, the concentration at half-maximal activity (AC50) under setting [1] is 1.3 µM [rising, full curve, poor fit]. On to `O=C(c1cnn2c(C(F)(F)F)cc(-c3ccccc3)nc12)N1CCCc2ccccc21`, for which the AC50 under setting [1] is 2.06 µM [rising, partial curve]. As to `O=C(CSCc1cccc(F)c1)N1CCN(c2ccccc2)CC1`, under setting [2], the AC50 was 1.84 µM [rising, partial curve, poor fit]. In the case of `COc1ccc(C(=O)CN2C(=O)c3ccccc3C2=O)c(OC)c1`, the cell number change is -14.4%. In addition, the AC50 under setting [1] is 5.17 µM [falling, partial curve, poor fit].

With `COC(=O)c1sc(NC(=O)c2oc3ccccc3c2C)nc1C`, the cell number change came to 5.61%. Moreover, the half-maximal activity concentration (AC50) under setting [1] was 0.116 µM [rising, full curve]. On to `COC(=O)C(CCSC)NC(=O)CNS(=O)(=O)c1ccc(Br)cc1` (stereo not given), for which the cell number change was determined as 17.5%. The concentration at half-maximal activity (AC50) under setting [1] is 29.1 µM [rising, single point]. Regarding `Clc1ccc(Sc2oc(/C=N/n3cnnc3)cc2Br)cc1`, the cell number change was 3%.

Take `O=C(c1c[nH]c2ccc(S(=O)(=O)N3CCC4(CC3)OCCO4)cc2c1=O)N1CCOCC1`: the cell number change amounted to 0.323%. Also, the AC50 under setting [1] is 25.9 µM [falling, partial curve].

Regarding `COc1ccc(NC(=O)[C@H](C)NC(=O)[C@@H]2Cc3ccccc3CN2C(=O)OC(C)(C)C)cc1`, the cell number change was 21.8%. Take `O=C(Nc1ccccc1CC[N+](=O)[O-])N1CCN(c2ccccc2)CC1`: the cell number change came out at 49%. Also, the AC50 under setting [2] is 23.1 µM [rising, single point].

For the compound `N/C(=N\OC(=O)COc1ccc(Cl)cc1Br)c1cccnc1`, the cell number change was 15.1%. Further, the AC50 under setting [2] was 6.51 µM [rising, single point].

On to `O=c1[nH]c(NC2CCCCC2)c([N+](=O)[O-])c(=O)[nH]1`, for which the cell number change is -38.5%. In addition, under setting [2], the AC50 is 11.6 µM [falling, partial curve, poor fit]. In addition, the AC50 under setting [1] was 14.6 µM [falling, partial curve, poor fit]. For `CCn1nc(C)c(/C=N/NC(=O)Cn2nnc(N)n2)c1C`, the cell number change is -15.6%. The half-maximal activity concentration (AC50) under setting [1] was 0.82 µM [falling, full curve, poor fit].

As for `COc1cc(C(=S)N2CCN(c3ccccc3Cl)CC2)cc(O)c1O`, the cell number change is -28.7%. Further, under setting [1], the AC50 was 20.6 µM [falling, single point].

With `N#Cc1c2c(c(NCCCN3CCOCC3)n3c1nc1ccccc13)CCC2`, the cell number change worked out at 56.7%. The same measure, in the same setting: with `Cc1cccc(N(Cc2ccccc2)C(=O)c2ccccc2F)c1` the figure was 4.03%. With `O=C1CCN(c2ccc([N+](=O)[O-])cc2F)CC1`, the cell number change was -6.13%. The AC50 under setting [1] is 2.06 µM [falling, single point]. As to `COc1cc(NS(=O)(=O)c2ccc(Nc3nc(-c4cccc([N+](=O)[O-])c4)cs3)cc2)nc(OC)n1`, the cell number change is -33.8%. In addition, the AC50 under setting [2] was 32.6 µM [falling, single point]. In addition, under setting [1], the AC50 is 29.1 µM [falling, partial curve].

In the case of `Cc1[nH]c2ccccc2c1/C=N/Nc1ccccn1`, under setting [2], the AC50 is 0.116 µM [rising, single point]. On the same count and under the same terms, under `O=C(CSc1nc2ccccc2c(=O)n1-c1cccc(C(F)(F)F)c1)NC1CC1` stands 1.64 µM [rising, partial curve].

Regarding `C=CCNC(=S)N/N=C/c1ccc(C)cc1C`, the cell number change came out at 26.2%. Under setting [1], the AC50 is 0.092 µM [rising, full curve].

As to `N/C(=N\OC(=O)Cc1ccccc1)c1ccc([N+](=O)[O-])cc1`, the cell number change amounted to 1.22%. Moreover, the AC50 under setting [2] was 0.13 µM [rising, full curve, poor fit]. As for `Nc1c(C(=O)c2cccs2)sc2nsc(SCCN3CCCCC3)c12`, under setting [1], the concentration at half-maximal activity (AC50) is 32.6 µM [falling, single point].

As to `COc1ccc(S(=O)(=O)Nc2ccc3cn[nH]c3c2)cc1[N+](=O)[O-]`, the cell number change is 6.92%. In addition, the concentration at half-maximal activity (AC50) under setting [1] is 3.66 µM [falling, full curve]. With `CC(C)(C)NC(=O)CSc1nc2ccc(NC(=O)CSc3nnnn3Cc3ccccc3)cc2s1`, the cell number change was -38.2%. The AC50 under setting [2] is 11.6 µM [falling, single point]. For the same compound, the AC50 under setting [1] was 14.6 µM [falling, single point]. With `O=C(CSc1ccc(-c2ccco2)nn1)c1cccc([N+](=O)[O-])c1`, the AC50 by setting is: under setting [2], 0.731 µM [rising, single point]; under setting [1], 0.58 µM [rising, single point]. `O=C(Nc1ccc(Cl)c(S(=O)(=O)N2CCOCC2)c1)c1n[nH]c(=O)c2ccccc12`: the cell number change was 6.84%. Moreover, the half-maximal activity concentration (AC50) under setting [1] was 0.058 µM [rising, partial curve]. For `Cc1cccnc1NC(=O)c1cccc(S(=O)(=O)N2CCN(c3ccccc3)CC2)c1`, the cell number change worked out at 19%. Consider `CCn1ccnc1C(O)c1cccc2ccccc12` (stereo not given), for which the cell number change is -5.61%. Moreover, the half-maximal activity concentration (AC50) under setting [1] is 0.00461 µM [rising, full curve, poor fit]. Consider `O=C(CC1SC(=Nc2ccccc2)N(CCc2c[nH]c3ccccc23)C1=O)Nc1ccccc1F` (stereo not given), for which the cell number change came out at 1.1%. In addition, the AC50 under setting [2] is 5.8 µM [rising, single point]. In addition, the concentration at half-maximal activity (AC50) under setting [1] is 5.8 µM [rising, single point]. As to `Cc1cc(OCC(=O)NCC2CCC(C(=O)O)CC2)c2c(C)c(Cc3ccccc3)c(=O)oc2c1` (stereo not given), the cell number change was 0.45%. The concentration at half-maximal activity (AC50) under setting [1] was 0.58 µM [falling, partial curve, poor fit]. Take `COc1cc(OC)cc(C(=O)NCC(=O)OCC(=O)c2cc(OC)ccc2OC)c1`: under setting [1], the AC50 is 16.4 µM [falling, partial curve, poor fit].

Take `CCCCn1c(SCC(N)=O)nnc1-c1cc(OC)c(OC)c(OC)c1`: the cell number change is 20.1%. Also, the concentration at half-maximal activity (AC50) under setting [2] is 0.651 µM [falling, full curve, poor fit]. Moreover, under setting [1], the AC50 is 8.2 µM [falling, partial curve, poor fit]. Consider `O=C(CCl)NCCN1C(=O)S/C(=C\c2cccnc2)C1=O`, for which the cell number change is 16.5%. Besides, the AC50 under setting [1] was 20.6 µM [rising, single point].

Consider `Clc1ccc(CSc2ncn[nH]2)cc1`, for which the cell number change is -10.3%.

In the case of `Cn1c(SCC(=O)N2CCCC2)nnc1-c1ccc(S(=O)(=O)N2CCCC2)cc1`, the cell number change was 0.196%. Also, the AC50 under setting [1] is 3.26 µM [falling, single point]. In the case of `Fc1ccc(N2CCN(Cc3ccccn3)CC2)cc1`, the cell number change was -3.66%. Also, under setting [1], the half-maximal activity concentration (AC50) was 0.58 µM [rising, single point]. `CC1CCCCC1NC(=O)COc1ccc(-n2cnnn2)cc1` (stereo not given): the AC50 under setting [1] was 6.51 µM [rising, single point].

Turning to `CC1CCCN(c2nc3ccsc3c(=O)s2)C1` (stereo not given), the AC50 under setting [2] was 6.51 µM [rising, single point]. For the compound `Cc1cccc(NC(=O)c2cnc3ccccn3c2=O)c1`, the concentration at half-maximal activity (AC50) is 0.92 µM [rising, full curve] under setting [2] and 0.731 µM [rising, full curve] under setting [1].

`CCCCC(=O)NC(c1ccc(C(C)C)cc1)c1ccc2cccnc2c1O` (stereo not given): the half-maximal activity concentration (AC50) under setting [1] was 14.6 µM [falling, partial curve]. Turning to `COc1cc2c(cc1OC)C(c1c(Cl)cccc1Cl)NC(=O)C2` (stereo not given), the cell number change is 26.7%. As to `CCC(Sc1nc2n[nH]c(C)c2c(=N)n1-c1cccc(Cl)c1C)C(=O)N(CC)CC` (stereo not given), the cell number change is -35.9%. The concentration at half-maximal activity (AC50) under setting [2] is 9.2 µM [falling, partial curve]. On to `C=C(C)C(=O)OCC(C)C`, for which the cell number change amounted to 23%. For the same compound, under setting [2], the AC50 is 0.651 µM [falling, single point]. Also, under setting [1], the half-maximal activity concentration (AC50) is 1.16 µM [falling, single point].

`O=C(NCC(c1cccs1)N1CCOCC1)c1ccc(Cl)nc1` (stereo not given): the cell number change worked out at 4.93%. In addition, under setting [1], the AC50 was 29.1 µM [rising, single point].
